Assay results as given in the supplement of paper PMC3334620.
In all, about 33,000 sequences were measured (“E-score (-0.5 to 0.5)”: median about -8e-05, highest 2% from about 0.23 on). The list shows a part of the results.

The sequences below were run against T1, Nrg2 (UniProt P38082) (assay: PBM E-score (8-mer binding enrichment) (E-score (-0.5 to 0.5)); higher = stronger / more preferred TF binding). Details: protein concentration: 100 nM; construct: GST-full length.
T1 sequence: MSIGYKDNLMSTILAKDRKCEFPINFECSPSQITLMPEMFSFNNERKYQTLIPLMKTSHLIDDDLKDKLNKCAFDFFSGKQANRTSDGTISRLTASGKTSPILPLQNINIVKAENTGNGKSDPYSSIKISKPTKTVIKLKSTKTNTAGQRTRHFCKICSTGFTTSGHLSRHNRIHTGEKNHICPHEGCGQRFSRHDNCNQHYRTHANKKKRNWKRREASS
Method in brief: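 Using PURExpress in vitro transcription/translation, GST-tagged yeast transcription factors were made in full-length or DNA-binding-domain form. These were applied at about 100-200 nM to double-stranded universal all-10-mer Agilent arrays, and bound protein was detected with fluorescent anti-GST. Scans were normalised with masliner before the Universal PBM Analysis Suite assigned E-scores to ungapped eight-base words pooled with their reverse complements.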

Row | Sequence | PBM E-score
1 | ACTACGTA | 0.0132
2 | CCCATCTA | 0.103
3 | ACACCATA | -0.0575
4 | GCGTTTGA | -0.0923
5 | AATATTGT | 0.168
6 | AGCATATC | 0.0744
7 | TAACCATA | -0.0752
8 | AATCTAAC | 0.0101
9 | AGCGCTAC | -0.0916
10 | CTGCCATA | 0.139
11 | AAAGAGGG | -0.136
12 | TGGATCCA | -0.0711
13 | GGCGAAAC | 0.0468
14 | GTAGATGA | 0.0203
15 | AGTGTTAT | 0.0152
16 | AATCTTAG | 0.032
17 | ATTTGCGC | -0.00718
18 | GATCCCAC | 0.218
19 | CTCTACTA | 0.0431
20 | ATACAGGG | 0.274
21 | CAGTCTCG | -0.205
22 | ATACGCGA | 0.0467
23 | CCGATGCA | 0.0174
24 | AATACGAT | 0.0129
25 | GTTGGCGA | -0.00348

Row | Sequence | PBM E-score
26 | CCGGATCA | 0.0095
27 | GATAGCGA | 0.0325
28 | CCTGTGCC | 0.0181
29 | CTGGTCCA | 0.00447
30 | ATACCGCA | 0.00689
31 | CTCAGGCA | 0.117
32 | AGAAGAAG | -0.043
33 | CCAGCTAG | 0.0216
34 | GCCGCAAC | 0.192
35 | ATACAGAG | -0.113
36 | GGTGCCCA | -0.0202
37 | ATCAACGC | -0.0247
38 | AGTACGTG | -0.0446
39 | AAAATCCC | -0.0572
40 | GCTGACAA | 0.0114
41 | CTTGCAAC | 0.124
42 | AAGCCTGA | -0.148
43 | GTACTAGA | -0.00429
44 | ACTTACAG | -0.0568
45 | CGCGGTCA | 0.0772
46 | GAACCTAC | -0.131
47 | ACATCGGG | -0.0174
48 | ACTTAGTA | 0.0817
49 | GCCCGAAC | 0.0691
50 | ACTCCGTC | -0.041

Row | Sequence | PBM E-score
51 | AAGTGGGA | 0.173
52 | CTCTCGGC | 0.00764
53 | CCTCAACC | -0.234
54 | AGCTAGCC | -0.0348
55 | GGAAGGAA | -0.00882
56 | AGTCCCTC | -0.0587
57 | AAGGTATG | 0.0619
58 | ATTCGAGA | -0.0181
59 | ACTTGTGA | 0.0543
60 | ACCCACCC | 0.243
61 | GACATCAA | 0.15
62 | CTCCCGCA | 0.0284
63 | GGTAGTAC | 0.031
64 | AACACAAG | -0.0753
65 | TGAAAACA | -0.00213
66 | AGAAAGCA | 0.168
67 | CCACTCCC | -0.128
68 | ATCTATAC | 0.0281
69 | AACACAGC | 0.165
70 | CGGCTTGC | 0.237
71 | GGTTGGGA | -0.0747
72 | CATATCGA | 0.118
73 | CAGGCGGC | -0.16
74 | CTCAACAC | 0.117
75 | ACACTTAT | -0.00232

Row | Sequence | PBM E-score
76 | CACTTCAG | -0.0458
77 | AATCCTCT | -0.15
78 | ACCGTACT | 0.0735
79 | ACCGTTGA | -0.221
80 | CTGACCCC | -0.124
81 | ACTACTGA | -0.00181
82 | GAAGGTGA | -0.0461
83 | AGTGCTTC | -0.111
84 | AAAACTTC | -0.046
85 | GGGATGAA | -0.0477
86 | AGCATTAC | -0.183
87 | AAAGTATC | 0.0914
88 | ACTGCCGG | -0.0445
89 | ATCGCCTC | 0.204
90 | ATAAACCA | -0.0416
91 | AATCTCCG | 0.0391
92 | TGCCTGAA | -0.223
93 | CTCCGATC | -0.23
94 | ACTCACAG | 0.00097
95 | CTCGGCCC | -0.116
96 | AGGAATAG | -0.0381
97 | GCTGGAAA | 0.018
98 | CATTTCAA | 0.153
99 | GAGGCATA | 0.123
100 | CGCGAACG | -0.066

Individual results from the results shown:
Entry for ACTGCCGG under PBM E-score: -0.0445
Entry for CTCCGATC under PBM E-score: -0.23
Entry for ATCGCCTC under PBM E-score: 0.204
Entry for GGGATGAA under PBM E-score: -0.0477
Entry for ACCGTTGA under PBM E-score: -0.221
Entry for CACTTCAG under PBM E-score: -0.0458
Entry for ACTCACAG under PBM E-score: 0.00097

Next part.

Row | Sequence | PBM E-score
101 | AGCTGACC | -0.0748
102 | AAACGATC | 0.00138
103 | GAATAGGC | 0.0276
104 | CGGCCTCC | -0.144
105 | ACCTACGC | -0.0522
106 | AAGGCCGA | 0.137
107 | AGTAACAT | 0.179
108 | AGACGTAG | 0.032
109 | ATGGACGC | 0.0601
110 | AGGGCACA | 0.138
111 | GATCCTCA | 0.0679
112 | CAGTCTCA | 0.0132
113 | ATGCCAGC | -0.157
114 | GGGATCCC | 0.0911
115 | AGCATGAT | -0.106
116 | ATCTCAAA | 0.14
117 | GCGACAAA | 0.192
118 | ACACTGAA | 0.171
119 | CAAGACTA | -0.066
120 | CATGGGAG | -0.0167
121 | TGTGGCAA | 0.0757
122 | GACTCCAA | -0.258
123 | GAACTGCA | 0.0913
124 | GATATCAA | 0.122
125 | GCTACAGA | -0.251

Row | Sequence | PBM E-score
126 | CCTGACCA | 0.142
127 | CGCGGTAG | -0.0358
128 | CAGACTTA | -0.179
129 | AGATTGAA | 0.0428
130 | AACATACC | -0.037
131 | TCTCCGAA | -0.101
132 | ACAGGATA | -0.0268
133 | TCATACCA | -0.00103
134 | GCGGTAAA | -0.0772
135 | ACGCTCCA | -0.0774
136 | ATACCTCC | -0.312
137 | ACCTCCCC | -0.174
138 | CCCGCCCG | 0.0802
139 | ATCTGATA | -0.115
140 | ATTGTCTA | 0.223
141 | GCAATCGC | -0.152
142 | AATGGCTC | 0.0798
143 | CGTAGGCA | -0.227
144 | CTAATTGA | 0.0446
145 | CCACAATA | 0.184
146 | ATATTAAC | 0.176
147 | ATAACAAC | 0.175
148 | GCTCGTTA | -0.0636
149 | CAAACGTC | -0.136
150 | CCTAACTC | -0.0633

Row | Sequence | PBM E-score
151 | CTCGGACA | -0.0517
152 | CTCTGCCA | -0.158
153 | GCATACCC | 0.125
154 | AGTTTAAT | 0.0955
155 | AATCTAAG | 0.00034
156 | TCTTGGCA | -0.00105
157 | AAACCGCT | -0.107
158 | CCTGAGCC | -0.162
159 | ACATGGTC | 0.0599
160 | CCAACATC | 0.0923
161 | ACACGTCT | -0.192
162 | AAACGAGC | -0.039
163 | CTACACCA | -0.153
164 | CTTGTACA | -0.218
165 | ATTCACCA | -0.0677
166 | CGTTCTGC | 0.203
167 | CTCGGCAC | 0.0273
168 | ACGTGTGG | -0.109
169 | AAGGCTAC | -0.0541
170 | AGTTGTGG | 0.156
171 | ACCAAGCC | -0.0984
172 | CCCAGAAA | 0.0848
